# These are yes or no findings as the source states them, for the method shown. Some binding calls cover weakened binding; strength is not graded here.
# Chains of the proteins cited; added tags and fusions are not shown. Residues count along the entry.
# UniProt Q15116, residues 25-167: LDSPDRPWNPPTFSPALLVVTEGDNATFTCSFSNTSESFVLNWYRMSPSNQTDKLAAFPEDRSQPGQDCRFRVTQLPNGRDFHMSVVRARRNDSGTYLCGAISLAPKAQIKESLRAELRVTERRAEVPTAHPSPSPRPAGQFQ
# B1: antibody 723C2 in human IgG4Pro backbone without the DC to DY mutation in H-CDR3 (antibody, V domains shown)
# VH: EVQLVESGGGLVQPGGSLKLSCAASGFTFSDYYMSWVRQTPEKRLEWVAYISSGGGSSYYPDSVKGRFTISRDNTKNTLYLQMSSLKSEDTAVYYCARLPHYFAMDCWGQGTSVTVSS
# VL: EIVLTQSPTTMAASPGEKITITCSASSSISSDYLHWYQQKPGFSPELLIYRTSNLASGVPARFSGSGSGTSYSLTIGSMEAEDVATYYCQQGTSLPRAFGGGTKLEIK
# Target: PD-1 biotin (UniProt Q15116)
# Assay: ELISA-type chemiluminescence assay: PD-1 biotin binding to plate-coated PD-L1 (2 ug/ml) with the antibody titrated; the antibody enhances the signal
binder,measurement,value
B1,binding,binds

# From US20260070984A1
